PubChem BioAssay AID1224830 | NIAID, 2016
Aim: 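Genes whose knock-down alters the TNF-alpha reporter response to LPS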 (primary screen). Cell system: human THP-1 monocytic leukaemia cells, TNF dual-luciferase reporter clone, PMA-differentiated to macrophage-like cells. Knock-down reagent: siRNA pool against human genes, 50 nM. Duration: LPS for 4 h, given about 3 days after siRNA transfection. Treatment: bacterial LPS (TLR4 ligand), 10 ng/ml. Measured: 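TNF firefly reporter luminescence divided by renilla, normalised to the plate median, then turned into a robust z-score for each replicate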. Direction: TNF reporter robust z-score: higher = stronger TNF reporter response to LPS. Hit rule: 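a well is active when its z-score exceeds 2.8 or falls below -1.5; control wells carry no call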.
The deposit covers about 18,000 reagents; shown is a random part of them. About 2,900 of all reagents (16%) count as active. 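Calls are made per well; low scores hint the gene aids the LPS response, high scores that it dampens it.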 Repeated entries: four replicate wells of each siRNA pool.

no.	target	TNF reporter robust z-score	activity call
1	CDKN2C (cyclin dependent kinase inhibitor 2C)	1.03	inactive
2	CDKN2C (cyclin dependent kinase inhibitor 2C)	0.69	inactive
3	CDKN2C (cyclin dependent kinase inhibitor 2C)	0.4	inactive
4	CDKN2C (cyclin dependent kinase inhibitor 2C)	0.37	inactive
5	SRPRA (SRP receptor subunit alpha)	0.91	inactive
6	SRPRA (SRP receptor subunit alpha)	0.42	inactive
7	SRPRA (SRP receptor subunit alpha)	0	inactive
8	SRPRA (SRP receptor subunit alpha)	1.25	inactive
9	UBE3D (ubiquitin protein ligase E3D)	-2.08	active
10	UBE3D (ubiquitin protein ligase E3D)	-1.39	inactive
11	UBE3D (ubiquitin protein ligase E3D)	-1.36	inactive
12	UBE3D (ubiquitin protein ligase E3D)	-1.6	active
13	CLPSL2 (colipase like 2)	-0.44	inactive
14	CLPSL2 (colipase like 2)	0.32	inactive
15	CLPSL2 (colipase like 2)	-0.95	inactive
16	CLPSL2 (colipase like 2)	0.44	inactive
17	DDX3Y (DEAD-box helicase 3 Y-linked)	0.39	inactive
18	DDX3Y (DEAD-box helicase 3 Y-linked)	0.6	inactive
19	DDX3Y (DEAD-box helicase 3 Y-linked)	-0.42	inactive
20	DDX3Y (DEAD-box helicase 3 Y-linked)	-0.05	inactive
21	AHSG (alpha 2-HS glycoprotein)	0.04	inactive
22	AHSG (alpha 2-HS glycoprotein)	0.84	inactive
23	AHSG (alpha 2-HS glycoprotein)	0.14	inactive
24	AHSG (alpha 2-HS glycoprotein)	2.15	inactive
25	AQP9 (aquaporin 9)	-0.64	inactive
26	AQP9 (aquaporin 9)	1.65	inactive
27	AQP9 (aquaporin 9)	0.81	inactive
28	AQP9 (aquaporin 9)	1.54	inactive
29	H2AB3 (H2A.B variant histone 3)	0.31	inactive
30	H2AB3 (H2A.B variant histone 3)	0.68	inactive
31	H2AB3 (H2A.B variant histone 3)	1.05	inactive
32	H2AB3 (H2A.B variant histone 3)	1.73	inactive
33	TCHP (trichoplein keratin filament binding)	0.39	inactive
34	TCHP (trichoplein keratin filament binding)	-0.03	inactive
35	TCHP (trichoplein keratin filament binding)	0.5	inactive
36	TCHP (trichoplein keratin filament binding)	1.37	inactive
37	ATP5PO (ATP synthase peripheral stalk subunit OSCP)	-0.63	inactive
38	ATP5PO (ATP synthase peripheral stalk subunit OSCP)	-0.23	inactive
39	ATP5PO (ATP synthase peripheral stalk subunit OSCP)	-0.07	inactive
40	ATP5PO (ATP synthase peripheral stalk subunit OSCP)	-0.09	inactive

Reagents listed above with an active call, once more:
target	TNF reporter robust z-score	activity call
UBE3D (ubiquitin protein ligase E3D)	-2.08	active
UBE3D (ubiquitin protein ligase E3D)	-1.6	active

The results go on:
no.	target	TNF reporter robust z-score	activity call
41	UTY	1.09	inactive
42	UTY	2.33	inactive
43	UTY	2.02	inactive
44	UTY	1.78	inactive
45	PNMA5 (PNMA family member 5)	-0.44	inactive
46	PNMA5 (PNMA family member 5)	-0.38	inactive
47	PNMA5 (PNMA family member 5)	-0.79	inactive
48	PNMA5 (PNMA family member 5)	-0.75	inactive
49	NPAS3 (neuronal PAS domain protein 3)	0.94	inactive
50	NPAS3 (neuronal PAS domain protein 3)	0.75	inactive
51	NPAS3 (neuronal PAS domain protein 3)	-0.33	inactive
52	NPAS3 (neuronal PAS domain protein 3)	-0.46	inactive
53	CELF6 (CUGBP Elav-like family member 6)	-0.54	inactive
54	CELF6 (CUGBP Elav-like family member 6)	-0.43	inactive
55	CELF6 (CUGBP Elav-like family member 6)	-0.63	inactive
56	ZNF665 (zinc finger protein 665)	1.2	inactive
57	ZNF665 (zinc finger protein 665)	1.32	inactive
58	ZNF665 (zinc finger protein 665)	0.88	inactive
59	ZNF665 (zinc finger protein 665)	1.53	inactive
60	ANKRD40 (ankyrin repeat domain 40)	-0.12	inactive
61	ANKRD40 (ankyrin repeat domain 40)	-0.36	inactive
62	ANKRD40 (ankyrin repeat domain 40)	-0.6	inactive
63	ANKRD40 (ankyrin repeat domain 40)	0.18	inactive
64	TMTC4 (transmembrane O-mannosyltransferase targeting cadherins 4)	-0.98	inactive
65	TMTC4 (transmembrane O-mannosyltransferase targeting cadherins 4)	-0.85	inactive
66	TMTC4 (transmembrane O-mannosyltransferase targeting cadherins 4)	-1.54	active
67	TMTC4 (transmembrane O-mannosyltransferase targeting cadherins 4)	-0.79	inactive
68	GCAT (glycine C-acetyltransferase)	-1.28	inactive
69	GCAT (glycine C-acetyltransferase)	-0.16	inactive
70	GCAT (glycine C-acetyltransferase)	-0.76	inactive
71	GCAT (glycine C-acetyltransferase)	0.23	inactive
72	GNPAT (glyceronephosphate O-acyltransferase)	-0.38	inactive
73	GNPAT (glyceronephosphate O-acyltransferase)	-0.32	inactive
74	GNPAT (glyceronephosphate O-acyltransferase)	-0.19	inactive
75	GNPAT (glyceronephosphate O-acyltransferase)	0.79	inactive
76	MTPN (myotrophin)	0.57	inactive
77	MTPN (myotrophin)	1.29	inactive
78	MTPN (myotrophin)	0.83	inactive
79	MTPN (myotrophin)	0.61	inactive
80	MARK1 (microtubule affinity regulating kinase 1)	-1.24	inactive
81	MARK1 (microtubule affinity regulating kinase 1)	-0.32	inactive
82	MARK1 (microtubule affinity regulating kinase 1)	-0.81	inactive
83	MARK1 (microtubule affinity regulating kinase 1)	-0.09	inactive
84	SSR2 (signal sequence receptor subunit 2)	-0.22	inactive
85	SSR2 (signal sequence receptor subunit 2)	0.21	inactive
86	SSR2 (signal sequence receptor subunit 2)	-0.18	inactive
87	SSR2 (signal sequence receptor subunit 2)	0.18	inactive
88	ZFP90 (ZFP90 zinc finger protein)	-0.84	inactive
89	ZFP90 (ZFP90 zinc finger protein)	-0.89	inactive
90	ZFP90 (ZFP90 zinc finger protein)	-0.31	inactive
91	ZFP90 (ZFP90 zinc finger protein)	-0.39	inactive
92	NXPE2 (neurexophilin and PC-esterase domain family member 2)	0.31	inactive
93	NXPE2 (neurexophilin and PC-esterase domain family member 2)	0.53	inactive
94	NXPE2 (neurexophilin and PC-esterase domain family member 2)	-0.58	inactive
95	NXPE2 (neurexophilin and PC-esterase domain family member 2)	-0.21	inactive
96	YTHDC2 (YTH N6-methyladenosine RNA binding protein C2)	1.63	inactive
97	YTHDC2 (YTH N6-methyladenosine RNA binding protein C2)	0.63	inactive
98	YTHDC2 (YTH N6-methyladenosine RNA binding protein C2)	0.66	inactive
99	YTHDC2 (YTH N6-methyladenosine RNA binding protein C2)	0.61	inactive
100	KHDRBS3	0.26	inactive
101	KHDRBS3	-0.72	inactive
102	KHDRBS3	-0.85	inactive
103	KHDRBS3	-0.67	inactive
104	METTL22 (methyltransferase 22, Kin17 lysine)	-0.54	inactive
105	METTL22 (methyltransferase 22, Kin17 lysine)	0.46	inactive
106	METTL22 (methyltransferase 22, Kin17 lysine)	-0.38	inactive
107	METTL22 (methyltransferase 22, Kin17 lysine)	-0.39	inactive
108	PFN4 (profilin family member 4)	1.96	inactive
109	PFN4 (profilin family member 4)	2.54	inactive
110	PFN4 (profilin family member 4)	1.1	inactive
111	PFN4 (profilin family member 4)	2.63	inactive
